# PubChem BioAssay AID1259308 – NCATS | 2017
# Test: 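Genes whose loss raises luciferase production in HEK293 cells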 (primary screen)
# System: human HEK293 embryonic kidney cells stably expressing firefly luciferase (HEK-CMV-Luc2-Hygro)
# Knock-down reagent: single siRNA against human genes, 0.8 pmol siRNA per well
# Timing: 72 h
# Detection: 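Luciferase light (ONE-Glo) measured on one replicate plate set and viability (CellTiter-Glo) on the other, scaled to a negative control siRNA, with robust z-scores and luciferase per cell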
# Direction: total luciferase, z-score and total luciferase, % of control: higher = more reporter protein produced; luciferase per cell, z-score: higher = more reporter output per viable cell; viable cells, % of control: higher = more viable cells
# Rule for the call: 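Active when the median/MAD z-score for overall luciferase is greater than 3; a gene was taken forward for validation with new siRNAs if at least two of its three siRNAs passed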
# Calls: active = raised luciferase; inactive = no rise
# The whole screen tested about 59,000 reagents; below is an unselected part. About 1,510 of all reagents (2.6%) count as active. 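Calls use total luciferase alone and ignore viability, so some active siRNAs may act by altering cell number.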 Unmarked entries are inactive. The numbers tell different reagents against one gene apart. Reagent sequences are not shown.
gene knocked down,reagent,"total luciferase, z-score","total luciferase, % of control","luciferase per cell, z-score","viable cells, % of control"
RNMT,1,0.388,89.6,-0.339,109
RNMT,2,0.394,89.7,0.486,88.2
RNMT,3,0.775,97.3,0.291,101
RCAN1,1,1.56,113,1.2,91.9
RCAN1,2,0.306,88,-0.741,119
RCAN1,3,3.26 (active),147,2.42,86.8
OTULIN,1,-0.641,69.1,0.474,68.2
OTULIN,2,-1.08,60.5,-1.28,94.6
OTULIN,3,-1.18,58.5,-0.325,71.2
GALNT5,1,1.26,107,1.33,84.3
GALNT5,2,-1.31,55.8,1.86,38.2
GALNT5,3,0.765,97.1,0.882,86
ZNF444,1,-0.0697,80.5,-0.0814,91.9
ZNF444,2,2.5,132,1.56,97.5
ZNF444,3,-2.07,40.7,-1.03,59.7
REG1B,1,1.28,107,0.951,93.3
REG1B,2,0.975,101,0.891,89.5
REG1B,3,1.89,120,0.77,109
LINC02897,1,0.0852,83.6,0.0751,91.6
LINC02897,2,1.03,102,0.821,92.1
LINC02897,3,2.68,135,1.77,94.7
KBTBD2,1,1.32,108,1.04,91.8
KBTBD2,2,-0.146,79,0.0596,86.9
KBTBD2,3,-0.103,79.8,-0.579,104
TGM7,1,-1.72,47.7,-1.54,79.9
TGM7,2,-0.83,65.4,-0.873,91.9
TGM7,3,-0.596,70,-0.518,89.7
CLDN25,1,-1.84,45.3,-2.01,85.8
CLDN25,2,-0.716,67.7,-0.243,80.6
CLDN25,3,-0.144,79,-0.321,96.1
SAMHD1,1,-1.75,47.1,-1.43,76.7
SAMHD1,2,0.941,101,2.7,55.2
SAMHD1,3,-1.21,57.7,-1.28,90.4
HEPH,1,0.792,97.6,0.709,90.5
HEPH,2,-0.00815,81.7,0.173,87.3
HEPH,3,1.51,112,1.37,87.2
TCIRG1,1,-0.101,79.9,0.801,72.3
TCIRG1,2,-0.846,65.1,-1.02,95.1
TCIRG1,3,1.33,108,0.64,102

Reprinted from the listing, 2 entries:
gene knocked down,reagent,"total luciferase, z-score","total luciferase, % of control","luciferase per cell, z-score","viable cells, % of control"
TCIRG1,1,-0.101,79.9,0.801,72.3
TCIRG1,2,-0.846,65.1,-1.02,95.1
